Data as given in PubChem BioAssay AID1259405 (NCATS, 2018)
Shown is a random part of about 50,000 reagents tested. About 4,000 of all reagents (8%) were called active. 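Mouse siRNA library applied to hamster cells; one well for each siRNA.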

Aim: 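Knock-downs that lift recombinant protein yield in hamster ovary cells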 (primary screen)
Cell system: Chinese hamster CHO-K1 ovary cells with stable secreted eGFP expression
Knock-down reagent: single siRNA against mouse genes, 0.8 pmol siRNA per well (2 µl of 400 nM stock)
Duration: 3 days
Detection: 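Per-well intracellular GFP measured by laser scanning cytometry, plus viability from ATP luminescence, each relative to plate median of non-targeting control wells, in %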
Direction: GFP, % of control: higher = more GFP per well, higher productivity; viability (ATP), % of control: higher = more viable cells (more ATP)
Rule for the call: 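Called active when intracellular GFP, relative to negative control, is at or above 120%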

no.	Gene	PubChem SID	GFP, % of control	viability (ATP), % of control	outcome
1	Zfp641	SID363555378	62.1	58.2	inactive
2	Zfp641	SID363564039	49.5	60	inactive
3	Zfp641	SID363587585	89.8	108	inactive
4	Aars1	SID363569614	104	132	inactive
5	Aars1	SID363577358	37.6	50.8	inactive
6	Aars1	SID363578766	74.9	74.6	inactive
7	Slc35h1	SID363547600	103	115	inactive
8	Slc35h1	SID363558369	69.6	75.3	inactive
9	Slc35h1	SID363560127	56.6	69.3	inactive
10	Meaf6	SID363543482	57.4	62.3	inactive
11	Meaf6	SID363552975	107	107	inactive
12	Meaf6	SID363558823	78.2	64.6	inactive
13	Mrto4	SID363554002	95.5	79.7	inactive
14	Mrto4	SID363561959	96.5	64.7	inactive
15	Mrto4	SID363565697	45.8	50.6	inactive
16	Or5w14	SID363544403	82.9	75.5	inactive
17	Or5w14	SID363550731	81.4	63.3	inactive
18	Or5w14	SID363557280	59.1	26.9	inactive
19	Tufm	SID363569160	74.3	88.2	inactive
20	Tufm	SID363583592	51.6	96.4	inactive
21	Trp63	SID363573766	75.3	108	inactive
22	Trp63	SID363581510	68.4	55.1	inactive
23	Trp63	SID363583974	77.8	122	inactive
24	Hat1	SID363545138	49.3	52.3	inactive
25	Hat1	SID363548651	99.5	85.2	inactive
26	Hat1	SID363562457	60.9	43.7	inactive
27	Pias4	SID363572584	84.5	32.4	inactive
28	Pias4	SID363577864	98.2	89.8	inactive
29	Pias4	SID363582088	69.2	106	inactive
30	Tub	SID363556342	36.3	20.4	inactive
31	Tub	SID363586792	71.4	88.5	inactive
32	Tub	SID363588900	108	97	inactive
33	Slc26a2	SID363574816	45.2	68.4	inactive
34	Slc26a2	SID363575872	95.7	62.5	inactive
35	Slc26a2	SID363580448	183	102	active
36	Slc26a2	SID363589722	113	79.5	inactive
37	Slc26a2	SID363589723	114	82	inactive
38	Slc26a2	SID363589724	79.1	92	inactive
39	Mmp19	SID363553567	85.8	91.9	inactive
40	Mmp19	SID363561524	142	90.4	active
41	Mmp19	SID363565262	119	84.2	inactive
42	Srsf10	SID363545932	68.1	56.8	inactive
43	Srsf10	SID363549445	71.2	68.9	inactive
44	Srsf10	SID363563251	125	75.4	active
45	Or5m12	SID363544693	104	79.5	inactive
46	Or5m12	SID363551021	87.5	66.8	inactive
47	Or5m12	SID363557570	18	14	inactive
48	Ergic1	SID363540795	98.6	127	inactive
49	Ergic1	SID363543246	102	99.5	inactive
50	Ergic1	SID363552739	115	46.1	inactive
51	Gstm3	SID363570485	142	115	active
52	Gstm3	SID363579285	69	94.7	inactive
53	Gstm3	SID363583157	112	76.4	inactive
54	Snrpa	SID363568985	106	63.3	inactive
55	Snrpa	SID363583417	35.2	67.5	inactive
56	Coq2	SID363568720	76.7	92.4	inactive
57	Coq2	SID363576112	81.4	69.8	inactive
58	Coq2	SID363578928	65.9	54.9	inactive
59	Gypa	SID363539888	60.8	76.2	inactive
60	Gypa	SID363561189	90.2	78.2	inactive
61	Gypa	SID363564225	101	82.8	inactive
62	Zfp959	SID363555182	53.9	78.7	inactive
63	Zfp959	SID363563843	48.2	49.1	inactive
64	Zfp959	SID363587389	47.6	73.2	inactive
65	Atpaf2	SID363546721	67.5	37.1	inactive
66	Atpaf2	SID363548477	76.2	91.4	inactive
67	Atpaf2	SID363560655	48.4	66.2	inactive
68	Fnbp1l	SID363543831	63.6	86.1	inactive
69	Fnbp1l	SID363551567	78.3	81	inactive
70	Fnbp1l	SID363559172	69.8	73.3	inactive
71	Slc38a10	SID363547815	99.1	67.2	inactive
72	Slc38a10	SID363558584	51.2	30.4	inactive
73	Slc38a10	SID363560342	81.7	95.7	inactive
74	A130023I24Rik	SID363542915	62.1	59.7	inactive
75	A130023I24Rik	SID363546432	79.9	67.6	inactive
76	A130023I24Rik	SID363548188	78	95.8	inactive
77	Ceacam10	SID363555183	54.6	59.6	inactive
78	Ceacam10	SID363563844	64.5	72.5	inactive
79	Ceacam10	SID363587390	115	112	inactive
80	Kirrel3	SID363541588	67.7	94.9	inactive
81	Kirrel3	SID363553180	90	60.7	inactive
82	Kirrel3	SID363566504	112	66.4	inactive
83	4933427D06Rik	SID363552141	84.4	95.5	inactive
84	4933427D06Rik	SID363585277	46.9	70.9	inactive
85	4933427D06Rik	SID363585628	62.6	95.5	inactive
86	Zmym2	SID363556669	43.4	46.1	inactive
87	Zmym2	SID363563573	88.8	69.3	inactive
88	Zmym2	SID363587119	91.3	116	inactive
89	Slc17a4	SID363547868	70.6	110	inactive
90	Slc17a4	SID363558637	45.7	43.3	inactive
91	Slc17a4	SID363560395	94.6	107	inactive
92	Or14c41	SID363544555	57.6	30.6	inactive
93	Or14c41	SID363550883	88	68	inactive
94	Or14c41	SID363557432	61.3	85.8	inactive
95	Atp2b1	SID363545761	79.9	77.4	inactive
96	Atp2b1	SID363549274	110	99.8	inactive
97	Atp2b1	SID363563080	98.7	99.1	inactive
98	Atad1	SID363569918	142	83.8	active
99	Atad1	SID363576958	103	78.3	inactive
100	Atad1	SID363578366	170	181	active
101	Celf4	SID363546080	53.2	58.4	inactive
102	Celf4	SID363549593	59.2	66.4	inactive
103	Celf4	SID363563399	32.2	52.2	inactive
104	Itgb1bp2	SID363540419	58.7	63.1	inactive
105	Itgb1bp2	SID363542171	89	62.5	inactive
106	Itgb1bp2	SID363567087	102	99.4	inactive
107	Senp3	SID363574475	73	93.2	inactive
108	Senp3	SID363575531	45.3	56.3	inactive
109	Senp3	SID363580107	84.4	77.6	inactive

Targets listed so far whose gene name starts with P or p:
Gene	PubChem SID	GFP, % of control	viability (ATP), % of control	outcome
Pias4	SID363572584	84.5	32.4	inactive
Pias4	SID363577864	98.2	89.8	inactive
Pias4	SID363582088	69.2	106	inactive
